PubChem BioAssay AID445 (National Center for Advancing Translational Sciences (NCATS), 2006)
The other results are listed elsewhere or left out. These are further read-outs of the screen, such as a control signal, another cell line or another target. No call is given for them. Most of these compounds were active or inconclusive in the main read-out, so they are no random draw. Potencies come from curve fits of mixed quality, noted in brackets.

Experiment: IkB Signaling
Settings: ABC-DLBCL IkBa-CBG/CBR dual luciferase ratio (green luciferase fused to IkBa over red control in OCI-Ly3 lymphoma cells), 4 h; measured here: control luc red channel unless noted
Summary of the method: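 Luminescence ratio of IκBα-fused green versus native red beetle luciferase in OCI-Ly3 cells, 4 h post-doxycycline with compound; red signal alone, scaled from basal (0%) to zero light (-100%), flagged nonspecific or cytotoxic effects.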

SMILES	AC50
COc1ccc(S(=O)(=O)N2CCCCC2)cc1C(=O)NC1CCS(=O)(=O)C1 (stereo unspecified)	10 µM [rising, partial curve, poor fit]
O=C(Nc1ccccc1)c1ccc(Cl)c(S(=O)(=O)Nc2ccccc2)c1	39.8 µM [falling, single point]
Cc1ccc(C(=O)c2cn(Cc3ccccc3)c3c(F)cc(F)cc3c2=O)cc1	20 µM [falling, single point]
Cc1cccc(NS(=O)(=O)c2ccc(C)c(C(=O)OCC(=O)Nc3cc(C)on3)c2)c1	31.6 µM [falling, partial curve]
COC(=O)c1ccc2c(c1)N(CC(=O)Nc1ccc(C)c(C)c1)C(=O)c1ccccc1S2	3.16 µM [falling, full curve]
Cc1csc(NC(=O)C2CCCN(S(=O)(=O)c3ccc(Br)s3)C2)n1 (stereo unspecified)	3.16 µM [falling, full curve]
Oc1ccccc1-c1cc(-c2ccc3c(c2)OCCO3)n[nH]1	0.00316 µM [falling, full curve, poor fit]
Cc1ccc2nc(Nc3cccc(C(F)(F)F)c3)c3nnnn3c2c1	0.2 µM [falling, full curve]
CN(C)S(=O)(=O)c1cccc(C(=O)OCC(=O)Nc2sccc2C(N)=O)c1	25.1 µM [falling, partial curve]
O=C(Nc1cnc2ccccc2c1)C1COc2ccccc2O1 (stereo unspecified)	10 µM [falling, partial curve]
CCCCS/C(=C(/C#N)C(N)=O)c1cc2c([nH]1)CCCC2	25.1 µM [falling, single point]
CCC(=O)Nc1ccc(NC(=O)c2ccccn2)cn1	12.6 µM [falling, partial curve]
Cc1ccc(NC(=O)Cn2c(=O)n(CC(=O)NCCc3ccccc3)c(=O)c3ccccc32)cc1	31.6 µM [falling, partial curve]
CSc1nc(NCc2ccco2)c2c3c(sc2n1)CN(C)CC3	7.94 µM [falling, partial curve]
COc1ccc(CNC(=O)CCc2c(C)nc3c4cccnc4nn3c2C)cc1	12.6 µM [falling, partial curve]
COc1ccc(CC(=O)Nc2nnc3n2CCS3)cc1OC	0.126 µM [falling, single point]
COc1ccc(C)cc1-n1c(SCC(=O)NCc2ccco2)nc2c([nH]c3ccccc32)c1=O	25.1 µM [falling, partial curve]
O=C(CN1C(=O)COc2ccc(Cl)cc21)Nc1cccc(C(=O)O)c1	1.58 µM [rising, full curve, poor fit]
O=C(Nc1ccc(Br)cc1)c1cc(S(=O)(=O)N2CCc3ccccc32)ccc1F	7.94 µM [falling, full curve]
CCn1c(=O)c2sccc2n2c(CCCC(=O)Nc3ccc(Oc4ccccc4)cc3)nnc12	15.8 µM [falling, single point]
COc1ccc(-c2nc(-c3ccccc3)no2)c(OC)c1	1.26 µM [falling, full curve]

Given bar-delimited: part of the list above
SMILES | AC50
COc1ccc(CNC(=O)CCc2c(C)nc3c4cccnc4nn3c2C)cc1 | 12.6 µM [falling, partial curve]
COc1ccc(CC(=O)Nc2nnc3n2CCS3)cc1OC | 0.126 µM [falling, single point]
COc1ccc(C)cc1-n1c(SCC(=O)NCc2ccco2)nc2c([nH]c3ccccc32)c1=O | 25.1 µM [falling, partial curve]

Next part:

SMILES	AC50
COc1ccc(OC)c(NC(=O)N2CCC3(CC2)Oc2ccccc2C(=O)N3Cc2ccccc2F)c1	10 µM [falling, partial curve]
COc1ccc(-c2noc(CC(=O)N(C)c3cc(Cl)c(OC)cc3OC)n2)cc1	15.8 µM [falling, partial curve]
CCCCN(C)C(=O)c1ccc2c(c1)NC(=O)C(CC(C)C)N2 (stereo unspecified)	3.16 µM [falling, partial curve]
Cc1ccc(NC(=O)c2nc(S(C)(=O)=O)ncc2N(Cc2ccco2)Cc2ccco2)cc1	25.1 µM [falling, single point]
Cc1ccc(OCCSc2nc3ccccc3n2CCC(=O)O)cc1	39.8 µM [falling, single point]
Cc1ccc(-c2nc(-c3cccs3)c(-c3cccs3)[nH]2)cc1	6.31 µM [falling, partial curve]
Cc1cc(C)cc(OCC(=O)N(Cc2ccco2)Cc2ccccc2Cl)c1	25.1 µM [falling, partial curve]
CC(C)NC(=O)c1cc(C(=O)c2cc(Cl)ccc2O)coc1=N	5.01 µM [falling, partial curve]
CCCN(CCC)c1cc(C)nc2nc(-c3ccc(C(C)(C)C)cc3)nn12	0.2 µM [rising, full curve]
CCOC(=O)c1ccc(NC(=O)c2cc(=O)c3ccc(C)c(C)c3o2)cc1	15.8 µM [rising, partial curve]
O=C(COc1ccc(Br)cc1CO)Nc1ccccc1F	7.94 µM [falling, partial curve]
CC(=O)N1CCc2cc(Br)cc(S(=O)(=O)CCC(=O)N3CCN(c4cccc(C)c4C)CC3)c21	3.16 µM [falling, partial curve]
COc1ccc(C(=O)N2CCN(C3CCC(c4ccccc4)CC3)CC2)cc1OC (stereo unspecified)	39.8 µM [falling, single point]
CC(C)(C)C1CCc2c(sc(NC(=O)c3cc(-c4ccc(F)cc4)on3)c2C#N)C1 (stereo unspecified)	25.1 µM [falling, single point]
CSc1cccc(Nc2cc(C(=O)NC3CCCCC3)c3ccccc3n2)c1	0.316 µM [falling, full curve]
CCCCCCSc1nc(N)c2c3c(sc2n1)CCCC3C (stereo unspecified)	3.16 µM [rising, full curve]
CCOC(=O)N1CCN(Cc2nc3cc(NC(=O)CC(C)C)ccc3n2C(C)C)CC1	5.01 µM [rising, full curve, poor fit]
COc1cccc(-c2noc(-c3cc4ccccc4oc3=O)n2)c1OC	2.51 µM [falling, partial curve]
Nc1nonc1-c1nc2ccccc2n1CC(=O)Nc1cccc(C(F)(F)F)c1	39.8 µM [falling, single point]
CC1=C(C(=O)Nc2ccccc2)C(c2ccc(F)cc2)n2nc(SCc3cc(C)ccc3C)nc2N1 (stereo unspecified)	2.51 µM [rising, full curve, poor fit]
